# According to PubChem BioAssay AID1259354 (Paczesny and Yang Labs, IUPUI and University of Michigan, 2018):
# Amino acid sequences for entries named in this document (tags omitted). A change or cut given only in a name is not applied to a line headed by its entry.
# UniProt Q01638: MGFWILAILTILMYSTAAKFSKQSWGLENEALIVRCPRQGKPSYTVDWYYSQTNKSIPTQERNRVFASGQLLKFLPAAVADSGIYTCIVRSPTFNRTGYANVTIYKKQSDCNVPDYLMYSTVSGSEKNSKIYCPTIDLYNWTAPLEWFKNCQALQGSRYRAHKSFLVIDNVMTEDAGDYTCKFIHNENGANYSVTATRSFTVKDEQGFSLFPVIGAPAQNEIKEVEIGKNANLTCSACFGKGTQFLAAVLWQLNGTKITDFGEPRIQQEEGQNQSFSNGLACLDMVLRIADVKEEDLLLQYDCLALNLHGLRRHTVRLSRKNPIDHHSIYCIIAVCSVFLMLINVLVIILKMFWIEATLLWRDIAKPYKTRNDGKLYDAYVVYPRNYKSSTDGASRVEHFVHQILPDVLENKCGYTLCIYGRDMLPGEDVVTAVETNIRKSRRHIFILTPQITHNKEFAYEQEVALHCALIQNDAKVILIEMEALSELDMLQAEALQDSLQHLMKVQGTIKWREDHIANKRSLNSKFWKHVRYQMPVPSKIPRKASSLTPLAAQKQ
# Screen size: about 78,000 compounds; about 1,800 (2.3%) were called active. Inconclusive means that the source gave no clear call. Such entries were picked first, then a sample of the others. Rule as the data show it: active = inhibition above about 30%; inconclusive = mostly about 10% to 28%; inactive = weaker than that.
# Target: Interleukin-1 receptor-like 1 (Homo sapiens) (UniProt Q01638)
# Assay: blocks human ST2 binding to IL-33, primary screen, biochemical, AlphaLISA (AID 1259354)
# Details: AlphaLISA ST2-Fc/biotin-IL-33 interaction, 1 h; at 17 µM, stronger effect = higher value
row,SMILES,inhibition
1,CC(=O)CSc1nc(-c2cccs2)cc(C(F)(F)F)c1C#N,inactive
2,CCC1Oc2ccccc2N(Cc2ccc(F)cc2)C1=O (stereo unspecified),inconclusive: 12%
3,Cn1c(Oc2ccc(Cl)cc2)nc2c1c(=O)n(Cc1ccc(F)cc1)c(=O)n2C,inconclusive: 12%
4,O=C(Nc1cc(Br)ccc1O)c1noc2c1CCCC2,inconclusive: 25%
5,CCc1ccccc1NS(=O)(=O)c1ccc(Br)s1,inactive
6,COc1cc(C(Nc2ccccn2)c2ccc3cccnc3c2O)cc(Br)c1OC (stereo unspecified),inconclusive: 25%
7,CC(NC(=O)CN1C(=O)C2CCCCN2C(=O)c2ccccc21)c1ccccc1 (stereo unspecified),inconclusive: 14%
8,COc1ccc(OC)c(S(=O)(=O)Nc2ccccc2F)c1,inconclusive: 12%
9,O=C(Nc1c2c(nn1-c1ccccc1)CSC2)c1cccc(Br)c1,inactive
10,CCc1noc(C)c1C(=O)N1CCC2(CCCN(CCCc3ccccc3)C2)C1 (stereo unspecified),inconclusive: 10%
11,CCOC(=O)c1[nH]ncc1CN1CCN(C2CCN(C(C)C)CC2)C(CCO)C1 (stereo unspecified),inconclusive: 10%
12,CC(c1ccc(-c2ccc3cc[nH]c(=O)c3c2)cc1)N1CCOCC1 (stereo unspecified),inconclusive: 15%
13,CC(C)OCCCNC(=O)c1cc(-c2ccc(Cl)s2)nc2ccccc12,inconclusive: 15%
14,COc1ccc(Cl)cc1S(=O)(=O)N1CCN(C23CC4CC(CC(C4)C2)C3)CC1,inactive
15,NC(=O)c1cccc(CC2CCN(C(=O)c3cc(=O)c4ccccc4o3)C2)c1 (stereo unspecified),inconclusive: 19%
16,COc1ccc(C(=O)/C=C(\C)c2ccc(OC)cc2)cc1,active: 43%
17,CCCc1nc(NCCc2nc(C)cs2)c2cnn(C)c2n1,inconclusive: 12%
18,COC1(NS(=O)(=O)c2ccc(C)cc2)C(C)=CC(=O)C=C1C,inactive
19,O=C(c1ncc[nH]1)N1CCc2c(ncnc2N2CCOCC2)C1,inconclusive: 20%
20,O=C1C2=C(Nc3ccccc3SC2c2ccccc2[N+](=O)[O-])c2ccccc21 (stereo unspecified),inconclusive: 19%
21,CCc1ccc2nc(N3CCC(C(=O)NCc4ccc5c(c4)OCO5)CC3)sc2c1,inactive

row,SMILES,inhibition
1,Cc1ccc(NC(=O)c2cccc(Cl)c2Cl)cc1C,inactive
2,NC(=O)c1cccnc1N1CCC(n2cc(Cc3ccccc3)nn2)CC1,inconclusive: 20%
3,COc1cccc(C2C3=C(CC(C)(C)CC3=O)Nc3nc(SCc4cccnc4)[nH]c(=O)c32)c1 (stereo unspecified),inactive
4,COc1ccc(NC(=O)Cn2cnc3c(oc4ccccc43)c2=O)c(OC)c1,inconclusive: 12%
5,COc1ccccc1NC(=O)C1=C(C)NC2=C(C(=O)CC(C)(C)C2)C1c1ccc2c(c1)OCO2 (stereo unspecified),inconclusive: 25%
6,Nc1c(C(=O)Nc2ccccc2)sc2nc3c(cc12)CCCCC3,inactive
7,Cc1c(CNC(=O)C(=O)c2c(-c3ccccc3)cc3ccccn23)cnn1C,inconclusive: 12%
8,O=C1/C(=C/c2cccs2)CS/C1=C/c1cccs1,inconclusive: 26%
9,CC1(c2ccccc2)CC(C)(C)N2C(=O)C(=O)c3cccc1c32 (stereo unspecified),active: 33%
10,CC(C)NC(=O)N[C@H]1CCN2C(=O)c3cc(-c4ccc(F)cc4F)ccc3NC(=O)[C@H]12,inconclusive: 11%
11,COc1ccc(-c2[nH]ncc2CN(C)CCn2nc(C)cc2C)cc1F,inconclusive: 13%
12,Cc1ccccc1Nc1ncnc2c1cnn2-c1ccc(Cl)cc1,inactive
13,CSC1=N/C(=C\c2ccccc2OCc2ccccc2)C(=O)S1,active: 64%
14,N#CC1=C(N)OC2=C(C(=O)CCC2)C1c1cccc([N+](=O)[O-])c1 (stereo unspecified),inactive
15,COc1ccc(-c2cn(-c3ccc(Br)cc3)c(=O)[nH]2)cc1,inconclusive: 19%
16,CCCC1=C(C(=O)OCC)C(c2ccccc2OC)C(C#N)=C(N)O1 (stereo unspecified),inconclusive: 14%
17,Cc1ccc(-c2cc(C(F)F)nc(S(C)(=O)=O)n2)cc1,inconclusive: 14%
18,Cc1[nH]c2ccccc2c1SCCNC(=O)C(C)(C)C,inconclusive: 13%
19,CCn1c(C2CCN(Cc3ccc(Cn4cccn4)cc3)CC2)n[nH]c1=O,inconclusive: 14%
20,C=CCN1C(=Nc2cccnc2)SCC1(O)c1ccc(C)cc1 (stereo unspecified),active: 59%
21,COc1ccccc1C(C)N(C)Cc1nc(CCC(C)C)no1 (stereo unspecified),inconclusive: 10%

# Look-ups from the entries so far:
# inhibition, CCCC1=C(C(=O)OCC)C(c2ccccc2OC)C(C#N)=C(N)O1 (stereo unspecified) is entered as inconclusive: 14%
# inhibition, N#CC1=C(N)OC2=C(C(=O)CCC2)C1c1cccc([N+](=O)[O-])c1 (stereo unspecified) is entered as inactive

# Additional structures

row,SMILES,inhibition
1,N#CSC(CS(=O)(=O)c1ccccc1[N+](=O)[O-])c1ccccc1 (stereo unspecified),inconclusive: 25%
2,COc1ccc(Nc2cc(C)nc(Nc3ccc(NC(=O)c4ccccc4OC)cc3)n2)cc1,active: 39%
3,O=C(Cc1ccc(F)cc1F)Nc1ccc(F)cc1,inactive
4,O=C(Cn1nnc(-c2ccccc2)n1)c1cccc([N+](=O)[O-])c1,inconclusive: 17%
5,O=C1Nc2ccc(Br)cc2C(O)(C(=O)NCc2cccs2)N1c1ccccc1 (stereo unspecified),inactive
6,O=S(=O)(Nc1ccccc1Br)c1cccnc1,inactive
7,Cc1[nH]nc2c1C(c1cc(Br)c(C)s1)C(C#N)=C(N)O2 (stereo unspecified),inconclusive: 21%
8,Cn1c(=O)cc(SCC(=O)N2CCCCC2)c2ccc(Cl)cc21,inactive
9,CCN(CC)S(=O)(=O)c1ccc(-c2nnc3sc4ccc(C)c(C)c4n23)cc1,inactive
10,COC(=O)c1cn([C@H]2CO[C@H]3[C@@H]2OC[C@@H]3NC(=O)NCc2ccccc2)nn1,inconclusive: 25%
11,COc1ccccc1-n1c(SCC(N)=O)nc2c(c1=O)SCC2,inconclusive: 11%
12,COc1cc(NC(=O)CCCn2nc([N+](=O)[O-])cc2C)cc(OC)c1OC,inconclusive: 24%
13,CCCCNC(=O)CCCn1c(=O)[nH]c2ccc(Br)cc2c1=O,inactive
14,Cc1nc2c(ccc3nc(NC(=O)C4CCCCC4)sc32)s1,inconclusive: 11%
15,O=C(CCCc1cccs1)N1CCc2[nH]nc(-c3ccccc3)c2C1,inconclusive: 23%
16,CCCN(Cc1nccn1C)C(=O)CSc1nnc(C)s1,inconclusive: 15%
17,O=C1Nc2ccc(S(=O)(=O)O)cc2C1=O,inconclusive: 10%
18,O=C1C2=C(Nc3[nH]n(-c4ccccc4)c(=O)c3C2c2ccc([N+](=O)[O-])cc2)c2ccccc21 (stereo unspecified),active: 47%
19,O=S(=O)(Nc1ccccn1)c1ccc(N=Cc2ccc(Cl)cc2Cl)cc1,inconclusive: 16%
